Assay results as given in the supplement of paper PMC10849652.
The list shows a part of the results.

The chains behind the UniProt entries cited, without tags or fusion partners. Where a name states a change or a piece, a line headed by the entry shows the natural chain unless it says otherwise.
UniProt P17096: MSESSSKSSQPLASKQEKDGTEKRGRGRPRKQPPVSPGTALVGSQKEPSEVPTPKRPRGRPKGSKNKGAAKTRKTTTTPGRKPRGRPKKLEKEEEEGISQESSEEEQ
UniProt O43719: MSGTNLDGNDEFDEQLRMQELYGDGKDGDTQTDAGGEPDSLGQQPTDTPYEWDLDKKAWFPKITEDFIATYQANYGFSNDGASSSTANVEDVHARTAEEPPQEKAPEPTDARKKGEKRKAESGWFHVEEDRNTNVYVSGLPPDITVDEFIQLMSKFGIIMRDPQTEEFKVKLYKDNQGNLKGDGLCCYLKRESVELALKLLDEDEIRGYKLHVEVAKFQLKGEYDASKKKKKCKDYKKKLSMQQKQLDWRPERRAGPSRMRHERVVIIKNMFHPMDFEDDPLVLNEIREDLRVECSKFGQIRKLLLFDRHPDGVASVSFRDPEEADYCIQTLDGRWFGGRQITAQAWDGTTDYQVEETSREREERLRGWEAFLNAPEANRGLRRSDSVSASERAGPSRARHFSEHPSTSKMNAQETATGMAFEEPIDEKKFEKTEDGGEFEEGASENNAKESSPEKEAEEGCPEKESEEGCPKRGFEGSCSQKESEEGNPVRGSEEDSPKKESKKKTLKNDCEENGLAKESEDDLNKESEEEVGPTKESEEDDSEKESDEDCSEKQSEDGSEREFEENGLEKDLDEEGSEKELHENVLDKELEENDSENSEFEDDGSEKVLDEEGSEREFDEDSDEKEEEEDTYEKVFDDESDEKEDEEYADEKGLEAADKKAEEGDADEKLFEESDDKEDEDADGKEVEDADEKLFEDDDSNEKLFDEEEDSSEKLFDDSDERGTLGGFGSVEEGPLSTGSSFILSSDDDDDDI
UniProt P17482: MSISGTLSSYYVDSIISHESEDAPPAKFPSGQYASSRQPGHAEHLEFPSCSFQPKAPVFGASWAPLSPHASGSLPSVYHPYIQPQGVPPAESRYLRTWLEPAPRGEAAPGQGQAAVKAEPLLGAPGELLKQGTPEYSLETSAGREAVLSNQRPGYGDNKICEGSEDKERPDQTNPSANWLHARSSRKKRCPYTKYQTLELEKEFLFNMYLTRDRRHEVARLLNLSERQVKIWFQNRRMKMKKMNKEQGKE
UniProt P0DMV8, whole entry, looked up: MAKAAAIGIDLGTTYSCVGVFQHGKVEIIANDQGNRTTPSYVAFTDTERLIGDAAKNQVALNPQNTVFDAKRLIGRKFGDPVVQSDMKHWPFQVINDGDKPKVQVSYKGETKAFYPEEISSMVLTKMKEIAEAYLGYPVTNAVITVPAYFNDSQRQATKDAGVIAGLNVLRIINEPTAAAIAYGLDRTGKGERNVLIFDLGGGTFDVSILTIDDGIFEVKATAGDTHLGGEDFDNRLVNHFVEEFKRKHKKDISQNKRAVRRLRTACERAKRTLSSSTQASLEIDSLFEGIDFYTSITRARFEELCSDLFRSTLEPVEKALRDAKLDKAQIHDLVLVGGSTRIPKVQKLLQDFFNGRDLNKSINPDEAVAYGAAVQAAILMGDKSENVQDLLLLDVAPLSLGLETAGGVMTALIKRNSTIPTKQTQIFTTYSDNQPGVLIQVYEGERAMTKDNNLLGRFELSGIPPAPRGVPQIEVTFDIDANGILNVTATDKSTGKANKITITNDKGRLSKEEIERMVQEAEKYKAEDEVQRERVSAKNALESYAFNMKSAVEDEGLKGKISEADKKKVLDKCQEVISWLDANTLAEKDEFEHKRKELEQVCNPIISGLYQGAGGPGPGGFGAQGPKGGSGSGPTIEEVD
UniProt Q96FZ2: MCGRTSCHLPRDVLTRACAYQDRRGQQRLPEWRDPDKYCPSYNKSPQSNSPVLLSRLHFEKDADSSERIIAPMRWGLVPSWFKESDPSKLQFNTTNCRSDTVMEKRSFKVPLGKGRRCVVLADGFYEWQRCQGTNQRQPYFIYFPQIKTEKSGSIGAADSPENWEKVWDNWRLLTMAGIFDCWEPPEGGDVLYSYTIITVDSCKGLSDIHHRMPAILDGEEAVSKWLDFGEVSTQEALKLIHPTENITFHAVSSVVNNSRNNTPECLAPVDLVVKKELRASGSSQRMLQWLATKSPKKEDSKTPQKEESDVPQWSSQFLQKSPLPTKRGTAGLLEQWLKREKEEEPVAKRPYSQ
UniProt Q96JB3: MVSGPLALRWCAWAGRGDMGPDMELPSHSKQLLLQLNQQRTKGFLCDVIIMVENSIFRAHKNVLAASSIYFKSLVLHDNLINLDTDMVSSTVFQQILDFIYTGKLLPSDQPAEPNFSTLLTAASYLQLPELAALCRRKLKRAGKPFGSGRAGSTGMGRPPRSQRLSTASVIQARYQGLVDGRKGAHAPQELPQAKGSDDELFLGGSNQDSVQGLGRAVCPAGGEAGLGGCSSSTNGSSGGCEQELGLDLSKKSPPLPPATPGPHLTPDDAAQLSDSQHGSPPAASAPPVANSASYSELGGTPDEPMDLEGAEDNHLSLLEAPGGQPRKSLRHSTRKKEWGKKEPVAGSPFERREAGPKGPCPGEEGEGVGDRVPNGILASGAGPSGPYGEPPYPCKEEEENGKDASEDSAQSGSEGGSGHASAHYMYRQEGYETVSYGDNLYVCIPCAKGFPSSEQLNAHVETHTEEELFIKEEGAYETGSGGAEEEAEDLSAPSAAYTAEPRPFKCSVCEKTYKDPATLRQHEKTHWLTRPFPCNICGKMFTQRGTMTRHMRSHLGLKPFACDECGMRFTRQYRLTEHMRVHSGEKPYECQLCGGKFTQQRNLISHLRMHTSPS
UniProt P08397: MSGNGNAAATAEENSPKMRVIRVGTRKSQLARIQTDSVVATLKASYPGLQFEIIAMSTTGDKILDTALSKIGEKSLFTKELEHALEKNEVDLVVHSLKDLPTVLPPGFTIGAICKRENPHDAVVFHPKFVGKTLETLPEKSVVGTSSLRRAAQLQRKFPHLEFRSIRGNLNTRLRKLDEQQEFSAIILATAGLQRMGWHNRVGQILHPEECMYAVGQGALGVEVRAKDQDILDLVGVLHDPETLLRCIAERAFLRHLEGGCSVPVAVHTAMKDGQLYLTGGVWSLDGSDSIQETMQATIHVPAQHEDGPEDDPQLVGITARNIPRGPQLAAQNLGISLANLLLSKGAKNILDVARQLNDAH
UniProt Q9NX55: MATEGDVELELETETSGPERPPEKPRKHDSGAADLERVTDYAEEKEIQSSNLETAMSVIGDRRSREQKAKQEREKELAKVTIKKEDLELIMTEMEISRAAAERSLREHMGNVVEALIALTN
UniProt Q9P2D0: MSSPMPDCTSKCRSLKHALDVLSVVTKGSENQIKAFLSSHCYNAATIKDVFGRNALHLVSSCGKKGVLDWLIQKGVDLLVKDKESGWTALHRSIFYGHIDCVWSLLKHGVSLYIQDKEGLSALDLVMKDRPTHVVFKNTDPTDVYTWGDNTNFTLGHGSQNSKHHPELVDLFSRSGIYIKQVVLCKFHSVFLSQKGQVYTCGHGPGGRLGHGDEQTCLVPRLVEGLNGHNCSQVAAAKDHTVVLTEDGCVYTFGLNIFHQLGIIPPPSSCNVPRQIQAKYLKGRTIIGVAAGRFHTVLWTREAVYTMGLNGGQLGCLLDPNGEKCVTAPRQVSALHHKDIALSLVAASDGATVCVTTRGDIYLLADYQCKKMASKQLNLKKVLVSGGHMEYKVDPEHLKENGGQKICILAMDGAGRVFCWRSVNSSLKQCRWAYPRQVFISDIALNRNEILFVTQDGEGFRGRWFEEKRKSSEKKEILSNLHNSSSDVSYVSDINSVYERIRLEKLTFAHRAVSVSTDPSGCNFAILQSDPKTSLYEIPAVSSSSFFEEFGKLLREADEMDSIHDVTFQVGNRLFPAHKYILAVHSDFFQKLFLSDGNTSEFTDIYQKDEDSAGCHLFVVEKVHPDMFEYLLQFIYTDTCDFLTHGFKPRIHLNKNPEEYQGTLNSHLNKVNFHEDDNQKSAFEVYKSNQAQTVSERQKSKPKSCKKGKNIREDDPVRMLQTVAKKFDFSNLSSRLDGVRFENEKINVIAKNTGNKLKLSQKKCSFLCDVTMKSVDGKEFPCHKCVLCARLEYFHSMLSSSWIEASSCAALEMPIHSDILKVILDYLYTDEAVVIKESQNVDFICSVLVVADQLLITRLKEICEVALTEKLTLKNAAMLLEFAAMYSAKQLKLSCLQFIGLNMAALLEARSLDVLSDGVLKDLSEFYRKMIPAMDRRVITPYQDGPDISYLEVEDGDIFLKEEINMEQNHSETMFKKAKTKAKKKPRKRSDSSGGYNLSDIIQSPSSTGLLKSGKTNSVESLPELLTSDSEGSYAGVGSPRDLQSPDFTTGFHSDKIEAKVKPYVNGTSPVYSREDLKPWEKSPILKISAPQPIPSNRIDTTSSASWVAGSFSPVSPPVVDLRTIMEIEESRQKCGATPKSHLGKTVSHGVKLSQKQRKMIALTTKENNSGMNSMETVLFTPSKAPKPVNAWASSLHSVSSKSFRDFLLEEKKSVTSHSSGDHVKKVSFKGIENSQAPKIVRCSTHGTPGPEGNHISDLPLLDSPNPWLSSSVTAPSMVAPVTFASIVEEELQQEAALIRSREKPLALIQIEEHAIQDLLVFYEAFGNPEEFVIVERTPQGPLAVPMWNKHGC
UniProt Q8WVV9: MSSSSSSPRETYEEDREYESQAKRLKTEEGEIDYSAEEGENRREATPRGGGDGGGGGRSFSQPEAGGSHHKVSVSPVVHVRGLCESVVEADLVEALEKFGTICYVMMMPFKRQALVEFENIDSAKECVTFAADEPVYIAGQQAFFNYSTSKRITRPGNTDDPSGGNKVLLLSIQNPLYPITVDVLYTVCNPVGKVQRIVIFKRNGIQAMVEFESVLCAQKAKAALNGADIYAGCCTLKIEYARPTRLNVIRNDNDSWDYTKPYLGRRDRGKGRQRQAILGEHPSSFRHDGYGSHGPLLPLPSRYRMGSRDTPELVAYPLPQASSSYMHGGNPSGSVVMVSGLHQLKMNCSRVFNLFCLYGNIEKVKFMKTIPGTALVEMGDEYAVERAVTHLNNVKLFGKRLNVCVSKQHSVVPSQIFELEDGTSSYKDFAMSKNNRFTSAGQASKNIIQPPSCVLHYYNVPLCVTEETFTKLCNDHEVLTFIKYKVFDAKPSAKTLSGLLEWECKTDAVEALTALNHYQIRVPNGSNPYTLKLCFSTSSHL
UniProt Q5T440: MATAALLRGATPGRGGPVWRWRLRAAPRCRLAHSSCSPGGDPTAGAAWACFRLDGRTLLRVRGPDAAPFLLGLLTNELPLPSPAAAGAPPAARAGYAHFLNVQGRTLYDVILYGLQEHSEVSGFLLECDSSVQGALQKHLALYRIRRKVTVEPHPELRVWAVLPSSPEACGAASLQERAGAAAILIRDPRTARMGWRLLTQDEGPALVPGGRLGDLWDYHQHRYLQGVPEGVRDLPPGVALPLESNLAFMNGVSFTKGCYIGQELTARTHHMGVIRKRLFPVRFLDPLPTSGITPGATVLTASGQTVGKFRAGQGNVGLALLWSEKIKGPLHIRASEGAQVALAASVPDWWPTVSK
UniProt P09651: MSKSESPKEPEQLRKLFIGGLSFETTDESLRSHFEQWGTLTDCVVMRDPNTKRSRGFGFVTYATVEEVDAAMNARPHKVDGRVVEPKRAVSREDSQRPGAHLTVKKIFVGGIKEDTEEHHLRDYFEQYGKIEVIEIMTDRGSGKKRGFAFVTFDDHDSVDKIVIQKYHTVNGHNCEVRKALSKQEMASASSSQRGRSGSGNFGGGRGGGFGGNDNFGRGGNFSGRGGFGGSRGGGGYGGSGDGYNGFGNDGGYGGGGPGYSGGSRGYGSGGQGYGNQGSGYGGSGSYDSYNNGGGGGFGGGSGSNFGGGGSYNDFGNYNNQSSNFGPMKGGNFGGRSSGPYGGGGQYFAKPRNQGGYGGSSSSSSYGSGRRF
UniProt P17066, whole entry, looked up: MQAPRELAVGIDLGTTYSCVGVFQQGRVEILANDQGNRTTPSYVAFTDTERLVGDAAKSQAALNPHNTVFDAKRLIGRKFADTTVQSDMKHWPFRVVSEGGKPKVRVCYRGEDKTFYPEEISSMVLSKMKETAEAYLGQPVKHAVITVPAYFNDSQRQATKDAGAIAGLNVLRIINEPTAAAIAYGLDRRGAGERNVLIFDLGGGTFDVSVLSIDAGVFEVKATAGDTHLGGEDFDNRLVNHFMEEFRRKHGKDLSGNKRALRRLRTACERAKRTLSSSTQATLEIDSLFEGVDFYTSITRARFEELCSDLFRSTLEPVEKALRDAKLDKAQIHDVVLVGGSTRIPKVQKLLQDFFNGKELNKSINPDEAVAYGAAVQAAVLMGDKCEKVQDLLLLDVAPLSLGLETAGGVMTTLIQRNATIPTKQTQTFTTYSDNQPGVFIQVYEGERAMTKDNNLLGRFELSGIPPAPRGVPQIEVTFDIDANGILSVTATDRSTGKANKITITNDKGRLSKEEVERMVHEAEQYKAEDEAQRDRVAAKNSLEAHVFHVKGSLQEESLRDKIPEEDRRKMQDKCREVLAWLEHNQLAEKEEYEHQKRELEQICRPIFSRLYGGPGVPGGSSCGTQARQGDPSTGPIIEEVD
UniProt Q9Y241: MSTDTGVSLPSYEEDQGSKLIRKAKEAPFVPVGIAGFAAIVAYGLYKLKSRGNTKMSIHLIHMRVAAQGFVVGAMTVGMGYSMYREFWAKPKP

What was measured:
Assay in all cases: log2 fold change, soluble protein after heating vs DMSO (PISA); higher = thermal stabilisation; K562 cells, 10 uM, 30 min; active = over 0.2 and 3.5 SD of the protein, either way, in both replicates (recomputed)
[1] = compound: CC1=C(C=C(C=C1)NC(=O)C2=CC(=CC=C2)C(C)(C)C#N)NC3=CC4=C(C=C3)N=CN(C4=O)C
How it was run: (§1)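 Values are thermal stability changes relative to control samples and are taken from duplicates. They are stated as log2 fold changes. Before quantification by TMTpro 16plex LC-MS/MS with equalised channel sums, K562 cells at 2×10^6 cells/mL were treated with 10 μM compound for 30 min, heated in aliquots for 3 min across 48°C-58°C, pooled, extracted in PBS with 0.5% NP-40 at 4°C, and centrifuged at 21,000xg for 90 min to give the soluble supernatant.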

[2] = compound: CC1=C(C=C(C=C1)NC(=O)C2=CC(=CC=C2)N(C)C)NC(=O)C3=CC=C(C=C3)O
How it was run: as §1

[3] = compound: CC1=CC=C(C=C1)SC2=C3C=C(SC3=CN=C2)C(=O)N
How it was run: as §1

[4] = compound: CC1=NC(=CC=C1)C2=C(N=C(N2)C(C)(C)C)C3=CC4=NC=CN=C4C=C3
How it was run: as §1

Nexturastat A = compound: CCCCN(Cc1ccc(C(=O)NO)cc1)C(=O)Nc1ccccc1 [Nexturastat A]
How it was run: as §1

vemurafenib = compound: CCCS(=O)(=O)Nc1ccc(F)c(C(=O)c2c[nH]c3ncc(-c4ccc(Cl)cc4)cc23)c1F [vemurafenib]
How it was run: as §1

[5] = compound: CCCS(=O)(=O)Nc1ccc(F)c(C(=O)c2c[nH]c3ncc(Cl)cc23)c1F
How it was run: as §1

[6] = compound: CCCc1cc(C)[nH]c(=O)c1CNC(=O)c1cc(-c2ccnc(N3CCN(C)CC3)c2)cc2c1cnn2C(C)C
How it was run: as §1

givinostat = compound: CCN(CC)Cc1ccc2cc(COC(=O)Nc3ccc(C(=O)NO)cc3)ccc2c1 [givinostat]
How it was run: as §1

barasertib = compound: CCN(CCCOc1ccc2c(Nc3cc(CC(=O)Nc4cccc(F)c4)[nH]n3)ncnc2c1)CCOP(=O)(O)O [barasertib]
How it was run: as §1

Measured: log2 fold change

HSPA5 (UniProt P11021)
inactive: [1] 0.006 | [2] -0.005 | [3] -0.016 | [4] 0.001 | Nexturastat A -0.102 | vemurafenib 0.002 | [5] -0.011 | [6] 0.038 | givinostat -0.018 | barasertib 0.037

HNRNPF (UniProt P52597)
inactive: [1] 0.076 | [2] -0.005 | [3] -0.032 | [4] -0.017 | Nexturastat A 0.036 | vemurafenib 0.106 | [5] 0.101 | [6] 0.027 | givinostat 0.051 | barasertib 0.047

HMGA1 (UniProt P17096)
inactive: [1] 0.024 | [2] 0.047 | [3] -0.111 | [4] -0.029 | Nexturastat A 0.104 | vemurafenib -0.007 | [5] -0.097 | [6] 0.017 | givinostat -0.05 | barasertib -0.029

HTATSF1 (UniProt O43719)
inactive: [1] 0.097 | [2] -0.123 | [3] -0.028 | [4] 0.031 | Nexturastat A 0.051 | vemurafenib 0.041 | [5] -0.026 | [6] -0.056 | givinostat 0.051 | barasertib 0.05

HOXB9 (UniProt P17482)
inactive: [1] 0.083 | [2] -0.083 | [3] 0.042 | [4] -0.03 | Nexturastat A -0.049 | vemurafenib -0.076 | [5] 0.044 | [6] 0.059 | givinostat -0.05 | barasertib 0.106

HSPB1 (UniProt P04792)
inactive: [1] -0.04 | [2] 0 | [3] -0.001 | [4] -0.03 | Nexturastat A 0.063 | vemurafenib 0.031 | [5] 0.014 | [6] 0.039 | givinostat 0.031 | barasertib 0.028

HMGCR isoform 3 (UniProt P04035)
inactive: [1] 0.131 | [2] -0.046 | [3] 0.061 | [4] -0.115 | Nexturastat A 0.074 | vemurafenib -0.002 | [5] -0.04 | [6] -0.043 | givinostat 0.034 | barasertib 0.027

HIST2H2BF isoform 2 (UniProt Q5QNW6)
active: Nexturastat A 0.78
inactive: [1] -0.094 | [2] -0.034 | [3] -0.202 | [4] -0.009 | vemurafenib -0.284 | [5] 0.529 | [6] 0.1 | givinostat 0.331 | barasertib -0.157

HHEX (UniProt Q03014)
inactive: [1] -0.03 | [2] 0.045 | [3] -0.009 | [4] -0.055 | Nexturastat A 0.05 | vemurafenib -0.081 | [5] 0 | [6] 0.026 | givinostat -0.026 | barasertib -0.003

HSPA1A (UniProt P0DMV8)
inactive: [1] -0.008 | [2] -0.002 | [3] -0.07 | [4] 0.005 | Nexturastat A 0.008 | vemurafenib 0.007 | [5] -0.079 | [6] 0.221 | givinostat -0.036 | barasertib 0.034

HOMER1 (UniProt Q86YM7)
inactive: [1] -0.049 | [2] -0.059 | [3] -0.009 | [4] 0.125 | Nexturastat A -0.138 | vemurafenib -0.021 | [5] 0.071 | [6] 0.085 | givinostat 0.007 | barasertib 0.036

HMCES (UniProt Q96FZ2)
inactive: [1] 0.044 | [2] 0.05 | [3] -0.102 | Nexturastat A -0.044 | [5] 0.097 | [6] -0.203 | givinostat -0.025 | barasertib 0.089

HLTF (UniProt Q14527)
inactive: [1] 0.04 | [2] -0.014 | [3] -0.056 | [4] 0.038 | Nexturastat A 0.019 | vemurafenib 0.047 | [5] 0.048 | [6] 0.109 | givinostat 0.018 | barasertib 0.007

HMGN5 (UniProt Q5JSK9)
inactive: [1] -0.07 | [2] -0.023 | [3] -0.137 | Nexturastat A -0.066 | vemurafenib -0.185 | [5] -0.346 | [6] -0.518 | givinostat 0.058 | barasertib 0.03

HIC2 (UniProt Q96JB3)
inactive: [1] 0.039 | [2] 0.028 | [3] -0.005 | [4] -0.093 | Nexturastat A 0.131 | vemurafenib 0.009 | [5] 0.123 | [6] -0.005 | givinostat -0.035 | barasertib -0.033

HMBS (UniProt P08397)
inactive: [1] -0.01 | [2] -0.002 | [3] 0.055 | [4] 0.056 | Nexturastat A -0.082 | vemurafenib 0.026 | [5] 0.008 | [6] -0.019 | givinostat -0.042 | barasertib -0.011

HYPK (UniProt Q9NX55)
inactive: [1] -0.003 | [2] 0.022 | [3] -0.012 | [4] 0.033 | Nexturastat A -0.015 | vemurafenib 0.084 | [5] -0.007 | [6] -0.001 | givinostat -0.011 | barasertib 0.04

IBTK (UniProt Q9P2D0)
inactive: [1] -0.067 | [2] 0.061 | [3] -0.222 | [4] -0.067 | Nexturastat A 0.217 | [5] -0.082 | barasertib 0.125

HPS1 (UniProt Q92902)
inactive: [1] -0.102 | [2] 0.046 | [3] -0.062 | vemurafenib -0.028 | [5] -0.058 | [6] -0.412 | givinostat 0.046 | barasertib 0.036

HNRNPLL (UniProt Q8WVV9)
inactive: [1] 0.158 | [2] -0.093 | [3] -0.01 | [4] 0.099 | Nexturastat A 0.028 | vemurafenib 0.051 | [5] 0.127 | [6] 0.01 | givinostat 0.143 | barasertib 0.063

HNRNPL (UniProt P14866)
inactive: [1] 0.093 | [2] -0.065 | [3] -0.055 | [4] 0.253 | Nexturastat A 0.359 | [5] 0.074 | [6] -0.126 | givinostat 0.248 | barasertib -0.029

HNRNPAB isoform 3 (UniProt Q99729)
inactive: [1] -0.001 | [2] 0.01 | [3] -0.148 | [4] -0.074 | Nexturastat A 0.138 | vemurafenib -0.084 | [5] -0.142 | [6] -0.019 | givinostat -0.069 | barasertib -0.105

HSPA8 (UniProt E9PN89)
inactive: [1] -0.158 | [3] -0.261 | [4] -0.144 | Nexturastat A -0.019 | vemurafenib -0.276 | [5] -0.507 | [6] -0.689 | givinostat 0.182 | barasertib 0.03

HNRNPH2 (UniProt P55795)
inactive: [1] 0.064 | [2] -0.027 | [3] 0.079 | [4] 0.058 | Nexturastat A 0.044 | vemurafenib 0.048 | [5] 0.208 | [6] 0.095 | givinostat 0.109 | barasertib 0.014

IBA57 (UniProt Q5T440)
inactive: [1] -0.017 | [2] -0.042 | [3] -0.01 | [4] 0.005 | Nexturastat A -0.095 | vemurafenib 0.038 | [5] 0.004 | [6] -0.03 | givinostat -0.041 | barasertib 0.017

HNRNPA1 (UniProt P09651)
inactive: [1] 0.001 | [2] 0.021 | [3] -0.083 | [4] -0.127 | Nexturastat A 0.211 | vemurafenib -0.059 | [5] -0.061 | [6] 0.092 | givinostat 0.019 | barasertib -0.115

HM13 (UniProt Q8TCT9)
inactive: [1] -0.057 | [2] 0.024 | [3] 0.036 | [4] -0.025 | Nexturastat A -0.001 | vemurafenib 0.029 | [5] 0.012 | [6] 0.112 | barasertib -0.005

HNRNPUL1 (UniProt M0R247)
inactive: [1] -0.059 | [3] -0.148 | [4] -0.075 | [5] -0.15 | givinostat 0.001

HMCN1 (UniProt Q96RW7)
inactive: [1] -0.015 | [2] 0.543 | [3] 0.293 | [4] 0.03 | Nexturastat A -0.06 | vemurafenib 0.205 | [5] -0.138 | [6] -0.175 | givinostat -0.143 | barasertib -0.082

HSPA6 (UniProt P17066)
inactive: [1] -0.027 | [2] 0 | [3] -0.053 | [4] 0.01 | Nexturastat A 0.018 | vemurafenib -0.018 | [5] -0.041 | [6] -0.035 | givinostat -0.092 | barasertib -0.006

HIGD1A isoform 2 (UniProt Q9Y241)
inactive: [1] -0.054 | [2] 0.094 | [4] 0.036 | [6] 0.052 | barasertib 0.085

Copied from the entries so far (2 entries):
HSPA6 (UniProt P17066)
inactive: [1] -0.027 | [2] 0 | [3] -0.053 | [4] 0.01 | Nexturastat A 0.018 | vemurafenib -0.018 | [5] -0.041 | [6] -0.035 | givinostat -0.092 | barasertib -0.006

HIGD1A isoform 2 (UniProt Q9Y241)
inactive: [1] -0.054 | [2] 0.094 | [4] 0.036 | [6] 0.052 | barasertib 0.085
